Melanoma cell counts after drug treatment

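Human melanoma cell lines in 1,536-well plates were treated with a pair of drugs for 72 h, then fixed, stained and imaged. Values are the number of DAPI-stained nuclei as a percentage of the DMSO control: 100 is no effect, lower means fewer cells. Every drug was used at one fixed concentration, the lower of two screened (a fifth of the higher). No replicate spread is given; individual values may be noisy.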 This is part of the screen, not chosen by result. A dash means that no value is listed here.

Drugs:
SNS-314, 0.0008 µM: O=C(Nc1cccc(Cl)c1)Nc1ncc(CCNc2ncnc3ccsc23)s1
VX-702, 0.4 µM: NC(=O)c1ccc(N(C(N)=O)c2c(F)cccc2F)nc1-c1ccc(F)cc1F
PD173074, 0.1 µM: CCN(CC)CCCCNc1ncc2cc(-c3cc(OC)cc(OC)c3)c(NC(=O)NC(C)(C)C)nc2n1
RKI-983, 0.4 µM: C[C@@H](N)c1ccc(C(=O)Nc2ccnc3[nH]ccc23)cc1
CHIR-265, 0.08 µM: Cn1c(Nc2ccc(C(F)(F)F)cc2)nc2cc(Oc3ccnc(-c4ncc(C(F)(F)F)[nH]4)c3)ccc21
AS-252424, 1 µM: O=C1NC(=O)/C(=C/c2ccc(-c3ccc(F)cc3O)o2)S1
BI-D1870, 0.2 µM: CC(C)CCN1c2nc(Nc3cc(F)c(O)c(F)c3)ncc2N(C)C(=O)C1C (centres undefined)
STA-4783, 0.006 µM: CN(NC(=O)CC(=O)NN(C)C(=S)c1ccccc1)C(=S)c1ccccc1
dasatinib, 0.004 µM: Cc1nc(Nc2ncc(C(=O)Nc3c(C)cccc3Cl)s2)cc(N2CCN(CCO)CC2)n1
cediranib, 0.4 µM: COc1cc2c(Oc3ccc4[nH]c(C)cc4c3F)ncnc2cc1OCCCN1CCCC1
embelin, 1.2 µM: CCCCCCCCCCCC1=C(O)C(=O)C=C(O)C1=O
L-779450, 0.2 µM: Oc1cc(-c2nc(-c3ccccc3)[nH]c2-c2ccncc2)ccc1Cl
LFM-A13, 2 µM: C/C(O)=C(\C#N)C(=O)Nc1cc(Br)ccc1Br
tanespimycin, 0.002 µM: C=CCNC1=C2C[C@@H](C)C[C@H](OC)[C@H](O)[C@@H](C)/C=C(\C)[C@H](OC(N)=O)[C@@H](OC)/C=C\C=C(/C)C(=O)NC(=CC1=O)C2=O

Combination	A375	COLO 800	IPC-298	501mel	COLO 792	COLO 829	A2058	C32
tanespimycin + SNS-314	101	-	-	-	-	-	98.9	55.2
VX-702 + BI-D1870	-	-	-	-	-	-	99.5	89.9
cediranib + BI-D1870	94.5	102	106	79.8	90.9	118	104	94.3
BI-D1870 + CHIR-265	48.9	58.3	55.0	51.8	39.8	81.8	81.3	75.1
SNS-314 + VX-702	-	-	-	-	-	-	-	90.7
VX-702 + AS-252424	-	-	-	107	-	-	93.5	109
embelin + STA-4783	54.5	46.8	88.6	51.5	86.7	75.9	84.1	77.1
CHIR-265 + tanespimycin	88.5	-	-	-	54.2	-	75.6	91.7
STA-4783 + cediranib	-	-	-	-	-	-	-	66.1
embelin + SNS-314	90.5	-	-	94.8	-	-	108	103
LFM-A13 + cediranib	79.7	71.4	96.6	81.6	86.8	107	91.5	101
STA-4783 + CHIR-265	53.2	-	-	-	-	-	72.9	83.6
STA-4783 + PD173074	23.5	40.3	81.7	49.7	60.3	51.6	67.3	83.5
dasatinib + RKI-983	72.5	181	101	-	51.4	68.3	66.6	76.0
dasatinib + LFM-A13	-	-	-	-	-	-	-	77.3
AS-252424 + embelin	114	-	-	-	-	-	108	90.2
PD173074 + LFM-A13	98.8	55.8	103	98.2	80.7	91.6	97.9	88.0
embelin + LFM-A13	-	-	-	-	115	-	-	-
embelin + CHIR-265	68.9	69.2	59.1	60.8	52.2	112	90.4	82.3
dasatinib + embelin	87.3	87.0	99.6	105	68.1	69.6	90.1	89.9
BI-D1870 + SNS-314	96.6	142	98.8	105	103	113	99.8	96.2
cediranib + L-779450	61.9	84.9	85.9	76.6	90.9	109	94.6	79.7
SNS-314 + CHIR-265	56.2	-	-	-	-	-	80.1	69.3
CHIR-265 + AS-252424	-	69.4	59.1	-	47.7	90.3	-	-
AS-252424 + LFM-A13	97.1	72.6	113	115	99.2	97.9	100	93.8
tanespimycin + VX-702	96.8	66.5	99.8	-	86.2	94.9	96.5	86.3
dasatinib + BI-D1870	78.9	56.2	93.8	88.7	53.2	92.9	75.2	84.1

Once more, the final 2:

Combination	A375	COLO 800	IPC-298	501mel	COLO 792	COLO 829	A2058	C32
tanespimycin + VX-702	96.8	66.5	99.8	-	86.2	94.9	96.5	86.3
dasatinib + BI-D1870	78.9	56.2	93.8	88.7	53.2	92.9	75.2	84.1

Values as published with doi:10.1371/journal.pone.0140310, rounded.